Data as given in PubChem BioAssay AID1508588 (Peter MacCallum Cancer Centre, 2020)
In all, the deposit lists about 18,000 reagents; below is a part drawn at random. In the full data, 790 (4.4%) got an active call. 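Calls rest on a combination of fold-change classes in drug and vehicle arms, not all shown here.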 Entries without a mark were called inactive.

- Aim: 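Which gene losses make BRAF-mutant melanoma cells more responsive to vemurafenib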 (primary screen)
- System: human WM266.4 melanoma cells (BRAF V600 mutant)
- Knock-down reagent: siRNA pool against human genes, 40 nM
- Time to read-out: 96 h from transfection to read-out
- Conditions: vemurafenib 300 nM (about IC25), added 48 h after transfection, for 48 h; comparison arm got DMSO vehicle only
- Read-out: 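Cell gain (DAPI nuclei at end minus before drug, mean of two replicates) and medium lactate by absorbance per cell, both as ratio to non-targeting siRNA, also grouped into fold-change classes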
- Scale: cell gain with vemurafenib: higher = more cell gain than with non-targeting siRNA; lactate per cell with vemurafenib: higher = more lactate made per cell
- Hit rule: 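Enhancement is called by pairing each knock-down's vehicle-arm and drug-arm fold-change classes for viability or glycolysis; which class combinations qualify is not given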
- Calls: active = enhances vemurafenib effect; inactive = no enhancement seen

target gene | cell gain with vemurafenib | lactate per cell with vemurafenib
RGPD2 (RANBP2 like and GRIP domain containing 2) | 0.69 | 0.23
MCEMP1 (mast cell expressed membrane protein 1) | -0.11 (active) | 0.57
C4BPA (complement component 4 binding protein alpha) | 0.52 | 1.69
AFG1L (AFG1 like ATPase) | 0.66 | 0.28
SLC30A4 | 0.41 | 0.88
RPL7A (ribosomal protein L7a) | -0.12 | 3.06
TRIM11 (tripartite motif containing 11) | 0.51 | 1.08
GOLGA8EP (golgin A8 family member E, pseudogene) | 0.93 | 0.71
LTB4R2 (leukotriene B4 receptor 2) | 0.35 | 0.38
SEPTIN2 (septin 2) | 0.5 | 1.2
ARPC4 (actin related protein 2/3 complex subunit 4) | 0.73 (active) | 0.47
SYNCRIP (synaptotagmin binding cytoplasmic RNA interacting protein) | 0.3 | 1.28
OR5M10 (olfactory receptor family 5 subfamily M member 10) | 0.7 | 1.17
BZW2 (basic leucine zipper and W2 domains 2) | 0.27 | 1.21
ARAP2 (ArfGAP with RhoGAP domain, ankyrin repeat and PH domain 2) | 0.68 | 0.95
ALAS1 (5'-aminolevulinate synthase 1) | 0.64 | 1.25
HTR6 (5-hydroxytryptamine receptor 6) | 0.53 | 1.67
ABHD14B (abhydrolase domain containing 14B) | 0.38 | 1.05
BCS1L (BCS1 ubiquinol-cytochrome c reductase complex chaperone) | 0.24 | 0.97
RPL18A (ribosomal protein L18a) | -0.02 | 1.98
FCER1G (Fc epsilon receptor Ig) | 1.02 | 0.82
DNAJC27 (DnaJ heat shock protein family (Hsp40) member C27) | 0.97 | 1.03
OBP2B (odorant binding protein 2B) | 0.83 | 1.15
CD200R1L (CD200 receptor 1 like) | 0.72 | 0.78
ALG9 (ALG9 alpha-1,2-mannosyltransferase) | 1.03 | 1
DHX36 (DEAH-box helicase 36) | 0.61 | 1.94
FGF3 (fibroblast growth factor 3) | 0.66 | 1.56
PDYN (prodynorphin) | 1.15 | 0.57
SLC39A1 | 0.66 | 0.31
CARD6 (caspase recruitment domain family member 6) | 0.86 | 1.22
EXO1 (exonuclease 1) | 1.26 | 0.52
ATF5 (activating transcription factor 5) | 0.42 | 0.7
PLAC8 (placenta associated 8) | 0.48 | 0.46
TTC29 (tetratricopeptide repeat domain 29) | 0.72 | 0.57
WNT10A (Wnt family member 10A) | 0.29 | 0.36
OSBPL6 (oxysterol binding protein like 6) | 1 | 0.44
SPRR2E (small proline rich protein 2E) | 0.29 (active) | 0.18
DRC3 (dynein regulatory complex subunit 3) | 0.67 (active) | 0.63
DEGS1 (delta 4-desaturase, sphingolipid 1) | 0.23 | 2.73
OMA1 (OMA1 zinc metallopeptidase) | 0.16 | 0.79
TBC1D22A (TBC1 domain family member 22A) | 0.66 | 1.3
RREB1 (ras responsive element binding protein 1) | 0.66 | 1.27
PARVA (parvin alpha) | 0.41 (active) | 0.49
CADM4 (cell adhesion molecule 4) | 0.65 | 0.9
OR4N4 (olfactory receptor family 4 subfamily N member 4) | 0.41 | 0.86
KRT10 (keratin 10) | 0.04 | 1.79
EAF2 (ELL associated factor 2) | 1.01 | 1.6
VHLL (VHL like) | 1.08 | 0.56
DVL3 (dishevelled segment polarity protein 3) | 0.91 | 0.88
THTPA (thiamine triphosphatase) | 0.53 | 0.22
SAMD5 (sterile alpha motif domain containing 5) | 0.89 | 1.74
SLC6A14 | 0.58 | 1.09
ZRSR2 | 0.77 | 0.6
LLGL1 (LLGL scribble cell polarity complex component 1) | 0.9 | 0.76
CADPS (calcium dependent secretion activator) | 0.66 | 0.46
LYSMD2 (LysM domain containing 2) | 1.01 | 1.7
C17orf67 (chromosome 17 open reading frame 67) | 0.2 | 1.29

7 entries from above, showing only “cell gain with vemurafenib”.
KRT10 (keratin 10) = 0.04
EAF2 (ELL associated factor 2) = 1.01
VHLL (VHL like) = 1.08
DVL3 (dishevelled segment polarity protein 3) = 0.91
THTPA (thiamine triphosphatase) = 0.53
SAMD5 (sterile alpha motif domain containing 5) = 0.89
SLC6A14 = 0.58
